The values below come from patent US11236123 (dated 2022).

Data set [1] in a line: general procedure: hybrid (solid and solution phase) peptide synthesis; psWang handle on resin for the C-terminal fragment; DIC/OxymaPure (SPPS); PyBOP/DIPEA (fragment coupling in solution). The conditions noted are these: for crude HPLC purity: 254 nm.
Data set [2] can be described thus: general procedure: hybrid (solid and solution phase) peptide synthesis; CTC resin; DIC/OxymaPure (SPPS); PyBOP/DIPEA (fragment coupling in solution). The settings on record: whole synthesis, on resin loading.
Data set [3] can be described thus: general procedure: hybrid (solid and solution phase) peptide synthesis; CTC resin with psWang handle; DIC/OxymaPure (SPPS); PyBOP/DIPEA (fragment coupling in solution). The conditions noted are these: whole synthesis, on resin loading.

As to Liraglutide, in data set [1] (late stage modification step), the “crude HPLC purity” value worked out at 71%. In addition, the “final HPLC purity” value in data set [1] (purification step, HPLC) is recorded as greater than 99%.
Regarding Boc-His-(2-15)-Gly-OH, the “crude HPLC purity” value in data set [1] (whole synthesis) was determined as 92%. In addition, the crude yield in data set [2] was determined as 81%.
With H-Gln-(18-31)-psWang, in data set [1] (whole synthesis), the “crude HPLC purity” value is listed as “ca 85%”. Besides, the crude yield entry in data set [3] is listed as “ca 50%”.
